From PubChem BioAssay AID504467 (National Center for Advancing Translational Sciences (NCATS), 2011)
In all, about 330,000 compounds went through this assay and about 7,700 (2.3%) were called active. Inconclusive results, whose numbers are uncertain, are shown with a selection of clear calls. Calls come from the whole dose curve; as a rule, active = well fitted inhibition curve with a large enough effect; inconclusive = small, poorly fitted or top-dose-only effect, or effect the other way; inactive = flat fitted curve, though single readings scatter. Potencies of inconclusive entries are doubtful fits and often do not repeat.

Assay: qHTS screen for small molecules that inhibit ELG1-dependent DNA repair in human embryonic kidney (HEK293T) cells expressing luciferase-tagged ELG1; note: nearly all actives have a fitted effect of over 55% in size
Details: HEK293T ELG1-luciferase reporter, luminescence, 16 h, DNA damage induced by 5-fluorouridine; activity change, negative = inhibition: at 46.1 µM (top of the series)
Outline: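 Reporter activity after DNA damage by 5-fluorouridine is monitored. Compound-treated cells incubate 16 hr at 37 °C, then ONE-Glo is added for 30 min before luminescence reading.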
% is set by controls: 0 for no effect and ±100 for the full control effect; potency is the fitted concentration of half-maximal effect.

Compound	Potency	activity change, negative = inhibition
COc1cccc2cc(C(=O)NC3CC4CCC3C4)oc12 (stereo not drawn)	inactive	
CN(C)c1cc(-c2ccc(Cl)cc2Cl)oc(=O)c1Cl	inconclusive: 29.1 µM [inhibitor, single point]	
CCN1CCCC1CNC(=O)c1cc2c(OC)cccc2[nH]1 (stereo not drawn)	inconclusive: 32.6 µM [inhibitor, single point]	
Cc1nc(NC(=O)CSc2nccn2C)sc1C(=O)N(C)C	inconclusive: 20.6 µM [activator, single point]	
FC(F)(F)c1ccccc1-n1c(-c2cnccn2)n[nH]c1=S	inconclusive: 20.6 µM [activator, partial curve]	
Cc1c(C)c2ccc(OCC(=O)N3CC[C@@]4(O)CCCC[C@H]4C3)c(C)c2oc1=O	inconclusive: 6.51 µM [activator, single point]	
OC(CN1c2ccccc2Sc2ccccc21)Cn1nnc2ccccc21 (stereo not drawn)	inconclusive: 29.1 µM [inhibitor, single point]	
COc1cc(S(=O)(=O)Nc2c(C)cc(C)cc2C)ccc1Cl	inactive	
COc1ccc(C2=C/C(=C\c3ccc(OC(C)=O)cc3)C(=O)O2)cc1	inactive	
COCc1[nH]nc2c1C(c1ccsc1)C(C#N)=C(N)O2 (stereo not drawn)	inconclusive: 18.4 µM [activator, partial curve, poor fit]	
CCOc1ccccc1-c1nc(CN2CCN(C(=O)c3ccco3)CC2)c(C)o1	inactive	
CN(Cc1nccs1)C(=O)C1CCC(=O)N(CCc2cccc(F)c2)C1 (stereo not drawn)	inconclusive: 20.6 µM [activator, partial curve, poor fit]	
CC(C)(C)c1ccc(/C=C/C(=O)Nc2ccncc2)cc1	inconclusive: 18.4 µM [activator, single point]	
Cc1csc(NC(=O)Cc2nn(C)c(=O)c3ccccc23)n1	inconclusive: 1.84 µM [inhibitor, partial curve, poor fit]	
Cc1ccc(C(=O)Nc2ncc(Cc3ccc(F)cc3)s2)o1	inconclusive: 4.11 µM [activator, full curve]	
Cc1ccn2cc(-c3cccc(NC(=O)c4ccccc4)c3)nc2c1	inconclusive: 3.66 µM [activator, single point]	
O=C(COC(=O)c1cc2ccccc2cc1O)NCc1ccccc1	inconclusive: 18.3 µM [activator, partial curve, poor fit]	
CC1CCCCC1NC(=S)NC(=O)c1ccccc1Cl (stereo not drawn)	inconclusive: 9.2 µM [activator, partial curve, poor fit]	
C/C(=N\NC(=O)c1ccccc1F)c1ccc(C#N)cc1	inconclusive: 20.6 µM [activator, partial curve]	
COc1ccc(C(C)=O)cc1COc1cccnc1[N+](=O)[O-]	inconclusive: 10.3 µM [inhibitor, partial curve, poor fit]	
CCOC(=O)[C@H]1[C@H]2COc3cc(OC)ccc3[C@@H]2N2C(=O)CN(Cc3ccc(OC)cc3)C(=O)[C@@]12C	inconclusive: 23.1 µM [inhibitor, partial curve, poor fit]	
COc1ccccc1NC(=O)CN1CCC(c2nc3ccccc3[nH]2)CC1	inactive	
O=C(CN1C(=O)c2ccccc2S1(=O)=O)NCc1ccco1	inconclusive: 16.4 µM [activator, partial curve, poor fit]	

Compound	Potency	activity change, negative = inhibition
CC(=O)Nc1cc2cc(NS(=O)(=O)c3ccc(C)cc3)ccc2oc1=O	inactive	
Fc1ccc(-n2c(Cc3ccccc3)nnc2SCc2nc(-c3cccs3)no2)cc1	inconclusive: 10.3 µM [inhibitor, partial curve]	
Cc1ccc(NC(=O)Cc2nc(CN(C)CC(=O)Nc3ccc(C)cc3)cs2)cc1	inconclusive: 20.6 µM [inhibitor, single point]	
COc1ccc(/C=N/NC(=O)c2ccc(O)cc2)cc1CN1CCCc2ccccc21	inactive	
COC(=O)c1ccc(C(=O)Nc2ccc3nc(-c4ccncc4)[nH]c3c2)cc1	inactive	
CCOc1ccccc1-c1nc(-c2ccc(C)nc2OC)no1	inconclusive: 9.2 µM [activator, partial curve]	
O=C(/C=C/c1cccc(Cl)c1)N1CCC(Cc2ccccc2)CC1	inconclusive: 18.4 µM [activator, single point]	
COc1cc(-c2nnc(SCc3cc(=O)oc4cc(C)ccc34)o2)cc(OC)c1OC	active: 11.6 µM	
CCOC(=O)c1ccc(N2C(=O)CC(N(Cc3ccc4c(c3)OCO4)C(=O)Nc3ccccc3)C2=O)cc1 (stereo not drawn)	inconclusive: 16.4 µM [inhibitor, single point]	
CCOc1ccccc1/C=N/n1c(C2CCCCC2)n[nH]c1=S	inactive	
CCn1c(SCC(=O)Nc2ccc(C)cc2)nc2nc3c(cc2c1=O)COC(C)(C)C3	inconclusive: 14.6 µM [inhibitor, partial curve]	
CCn1ccc(C(=O)NC2=NCCS2)n1	inconclusive: 29.1 µM [activator, single point]	
O=C(Cc1ccc(-n2c(=O)c3ccccc3n(Cc3cccc([N+](=O)[O-])c3)c2=O)cc1)NCC1CCCO1 (stereo not drawn)	inconclusive: 25.9 µM [inhibitor, partial curve]	
CCOC(=O)C1=C(c2ccccc2)NC(=O)NC1c1cc(OC)c(OC)c(OC)c1 (stereo not drawn)	inactive	
COc1ccc(/C=C/C2=NC(=C\N(C)C)/C(=O)O2)cc1	inconclusive: 18.4 µM [activator, partial curve]	
O=C(Nc1ccc(OCC(=O)N2CCC(Cc3ccccc3)CC2)cc1)c1ccco1	inconclusive: 29.1 µM [inhibitor, single point]	
NS(=O)(=O)c1ccc(CNC(=O)c2cc(-c3cccs3)nc3ccccc23)cc1	inconclusive: 7.3 µM [inhibitor, partial curve, poor fit]	
O=C(NNC(=O)c1ccc2c(=O)n3c(nc2c1)CCC3)c1ccc(Cl)cc1	inactive	
C#CC[N+](C)(C)CCCCCCCCCC	inconclusive: 13 µM [inhibitor, partial curve]	
O=[N+]([O-])c1ccc(O)c(/C=N/n2c(-c3ccccc3)n[nH]c2=S)c1	inactive	
COc1ccc(N2CCN(C(=O)CSc3nnc(-c4cccnc4)n3-c3ccccc3)CC2)cc1	inconclusive: 23.1 µM [inhibitor, single point]	
CCN(CC)S(=O)(=O)c1cccc(NC(=O)COc2ncnc3sccc23)c1	inactive	
CCCNC(=O)CSCc1nc(-c2ccc(SC)cc2)oc1C	inconclusive: 29.1 µM [inhibitor, single point]	

Compound	Potency	activity change, negative = inhibition
CCOC(=O)c1sc(NC(=O)C2CCC2)cc1C	inconclusive: 5.17 µM [activator, full curve]	
COc1ccc(CCN2C(=S)N(c3ccccc3)C(=O)C2CC(=O)O)cc1OC (stereo not drawn)	inactive	
N#Cc1cc([N+](=O)[O-])ccc1Oc1cccc(/C=N/NC(=O)c2ccc(Cl)cc2)c1	inconclusive: 20.6 µM [inhibitor, single point]	
C=CCn1c(C(CC)CC)nc2ccccc21	inconclusive: 23.1 µM [activator, partial curve, poor fit]	
COc1cccc(C(=O)NNc2c3ccccc3nc3ccccc23)c1	inconclusive: 8.2 µM [inhibitor, partial curve]	
O=C(COc1ccccc1Cl)N1CCc2ccccc21	inconclusive: 8.2 µM [activator, partial curve]	
CCOc1ccc(NS(=O)(=O)c2ccc(C(=O)N(C)CCc3ccc(OC)c(OC)c3)cc2)cc1	inconclusive: 23.1 µM [inhibitor, single point]	
O=C(N1CCCC1)n1c(Cc2ccccc2)nc2ccccc21	inconclusive: 32.6 µM [inhibitor, partial curve, poor fit]	
CCOC(=O)c1c(NC(=O)COC(=O)c2ccc(C)s2)sc2c1CC(C)(C)NC2(C)C	inactive	
Cc1[nH]n(-c2ccccc2)c(=O)c1C=NCCc1ccccc1	inconclusive: 29.1 µM [activator, single point]	
CC(=O)c1c(C)[nH]c(C(=O)OCC(=O)N2CCN(S(=O)(=O)c3ccc(C)cc3)CC2)c1C	inactive	
C=CCNC(=O)c1ccc(-c2nc(-c3ccc(Cl)c(Cl)c3)cs2)cc1	inactive	
COc1ccc2cc(CN(Cc3ccco3)C(=S)NCC3CCCO3)c(=O)[nH]c2c1 (stereo not drawn)	active: 23.1 µM	
CN(CC(=O)Nc1ccccc1Cl)C(=O)COC(=O)c1cnccn1	inactive	
COc1cc(C(=O)NCC(=O)N/N=C/c2ccc(-c3ccc([N+](=O)[O-])cc3)o2)cc(OC)c1OC	inconclusive: 25.9 µM [inhibitor, single point]	
C#CCn1cccc(C(=O)Nc2ccc(OC)cc2)c1=O	inconclusive: 16.4 µM [activator, partial curve]	
O=S(=O)(c1ccccc1F)N1CCN(c2nc3ccccc3s2)CC1	inconclusive: 20.6 µM [activator, partial curve]	
O=C(O)CN(c1ccc2c(c1)OCCO2)S(=O)(=O)c1ccccc1		inconclusive: 2.08% [activator]
NC(=S)N/N=C/c1ccc([N+](=O)[O-])cc1	inconclusive: 0.58 µM [inhibitor, partial curve]	
c1ccc2[nH]c(-c3cscn3)nc2c1	inconclusive: 18.4 µM [activator, partial curve]	
CCc1ccccc1NC(=O)CNC(=O)c1ccc(OCc2cn3ccccc3n2)cc1	inconclusive: 32.6 µM [inhibitor, single point]	
COCc1[nH]nc2c1C(c1ccc(F)cc1F)C(C#N)=C(N)O2 (stereo not drawn)	inactive	
